PubChem BioAssay AID1508597 – Cure First – 2020

Assay: 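Knock-downs altering ovarian cancer cell survival with or without PARP inhibitor rucaparib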 (primary screen)
Cell system: human ovarian carcinoma lines grown from tumours: OCI-P5x (papillary serous) and OCI-C5x (clear cell)
Reagents: siRNA pool against human genes, 1.25 pmol siRNA per well
Timing: 72 h or 96 h, depending on the cell culture
Conditions: rucaparib 20 µM (about IC30) or vehicle, present until read-out
Rucaparib or vehicle: Vehicle
Cell line: OCI-C5x (clear cell)
Measurement: 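ATP luminescence measured at 72 or 96 h according to the culture, then normalised and expressed as percent viability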
Reading the numbers: viability, normalised: higher = more viable cells remaining
Rule for the call: 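a well counts as a hit if its normalised viability is under 80 percent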
Meaning of the calls: active = viability under 80%; inactive = viability 80% or more
Shown is an unselected part of the about 2,100 reagents, under one of the conditions tested. 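Calls flag viability under 80% in either arm, not effects specific to rucaparib; the reference for percent is not stated.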 The record does not give: the 100% reference.

Gene,PubChem SID,technical replicate,"viability, normalised (%)",activity call
CRAMP1 (cramped chromatin regulator 1),SID405528148,1,37.7,active
CRAMP1 (cramped chromatin regulator 1),SID405528148,2,29.1,active
CRAMP1 (cramped chromatin regulator 1),SID405528148,3,41.2,active
RABGGTA (Rab geranylgeranyltransferase subunit alpha),SID405527220,1,25.7,active
RABGGTA (Rab geranylgeranyltransferase subunit alpha),SID405527220,2,34.9,active
RABGGTA (Rab geranylgeranyltransferase subunit alpha),SID405527220,3,26.6,active
MTREX (Mtr4 exosome RNA helicase),SID405527307,1,39.7,active
MTREX (Mtr4 exosome RNA helicase),SID405527307,2,39.6,active
MTREX (Mtr4 exosome RNA helicase),SID405527307,3,23.4,active
ATF7IP (activating transcription factor 7 interacting protein),SID405527999,1,57.2,active
ATF7IP (activating transcription factor 7 interacting protein),SID405527999,2,67,active
ATF7IP (activating transcription factor 7 interacting protein),SID405527999,3,56.5,active
H2AX (H2A.X variant histone),SID405528443,1,63.2,active
H2AX (H2A.X variant histone),SID405528443,2,48.2,active
H2AX (H2A.X variant histone),SID405528443,3,50.9,active
HDAC8 (histone deacetylase 8),SID405526846,1,57.3,active
HDAC8 (histone deacetylase 8),SID405526846,2,64.2,active
HDAC8 (histone deacetylase 8),SID405526846,3,65.6,active
PCDHB2 (protocadherin beta 2),SID405527124,1,52.6,active
PCDHB2 (protocadherin beta 2),SID405527124,2,33.9,active
PCDHB2 (protocadherin beta 2),SID405527124,3,43.7,active
"PFKFB2 (6-phosphofructo-2-kinase/fructose-2,6-biphosphatase 2)",SID405528592,1,38.7,active
"PFKFB2 (6-phosphofructo-2-kinase/fructose-2,6-biphosphatase 2)",SID405528592,2,44.6,active
"PFKFB2 (6-phosphofructo-2-kinase/fructose-2,6-biphosphatase 2)",SID405528592,3,57.8,active
PHF5A (PHD finger protein 5A),SID405527155,1,31.9,active
PHF5A (PHD finger protein 5A),SID405527155,2,38.5,active
PHF5A (PHD finger protein 5A),SID405527155,3,31.7,active
SLC1A3,SID405527312,1,38.8,active
SLC1A3,SID405527312,2,30.2,active
SLC1A3,SID405527312,3,43.1,active

A run of entries from the list above:
Gene,PubChem SID,technical replicate,"viability, normalised (%)",activity call
"PFKFB2 (6-phosphofructo-2-kinase/fructose-2,6-biphosphatase 2)",SID405528592,3,57.8,active
PHF5A (PHD finger protein 5A),SID405527155,1,31.9,active
PHF5A (PHD finger protein 5A),SID405527155,2,38.5,active

Continued:
Gene,PubChem SID,technical replicate,"viability, normalised (%)",activity call
PI4KA (phosphatidylinositol 4-kinase alpha),SID405527424,1,74.1,active
PI4KA (phosphatidylinositol 4-kinase alpha),SID405527424,2,60.5,active
PI4KA (phosphatidylinositol 4-kinase alpha),SID405527424,3,64.7,active
DHX16 (DEAH-box helicase 16),SID405528210,1,47.8,active
DHX16 (DEAH-box helicase 16),SID405528210,2,52.2,active
DHX16 (DEAH-box helicase 16),SID405528210,3,47.4,active
ASXL2 (ASXL transcriptional regulator 2),SID405527994,1,45.9,active
ASXL2 (ASXL transcriptional regulator 2),SID405527994,2,75.3,active
ASXL2 (ASXL transcriptional regulator 2),SID405527994,3,38.1,active
SMPD4 (sphingomyelin phosphodiesterase 4),SID405526721,1,59.9,active
SMPD4 (sphingomyelin phosphodiesterase 4),SID405526721,2,61.1,active
SMPD4 (sphingomyelin phosphodiesterase 4),SID405526721,3,59.4,active
SRMS,SID405527500,1,66.3,active
SRMS,SID405527500,2,59.8,active
SRMS,SID405527500,3,67.8,active
BAZ1B (bromodomain adjacent to zinc finger domain 1B),SID405528017,1,37.3,active
BAZ1B (bromodomain adjacent to zinc finger domain 1B),SID405528017,2,48.8,active
BAZ1B (bromodomain adjacent to zinc finger domain 1B),SID405528017,3,40.3,active
CHD8 (chromodomain helicase DNA binding protein 8),SID405528107,1,43,active
CHD8 (chromodomain helicase DNA binding protein 8),SID405528107,2,44.8,active
CHD8 (chromodomain helicase DNA binding protein 8),SID405528107,3,60.1,active
GRK2 (G protein-coupled receptor kinase 2),SID405527822,1,52.1,active
GRK2 (G protein-coupled receptor kinase 2),SID405527822,2,51.4,active
GRK2 (G protein-coupled receptor kinase 2),SID405527822,3,34.1,active
BCORL1 (BCL6 corepressor like 1),SID405528028,1,37.8,active
BCORL1 (BCL6 corepressor like 1),SID405528028,2,41.8,active
BCORL1 (BCL6 corepressor like 1),SID405528028,3,40.6,active
